From article PMC3006138, “Fexinidazole – A New Oral Nitroimidazole Drug Candidate Entering Clinical Development for the Treatment of Sleeping Sickness” (PLoS Neglected Tropical Diseases, 2010)

Assay: Caco-2 permeability
Conditions: human
Protocol: Caco-2 [36] or MDR1-MDCK (Madin Darby canine kidney cells transfected with the human multidrug resistance MDR1 gene) cell monolayers were grown to confluence on collagen-coated, microporous, polycarbonate membranes in 12-well microtitre plates. The buffer for the donor chamber was Hanks balanced salt solution with 10 mM HEPES and 15 mM glucose at pH 7.4. The buffer in the receiver chamber contained the same with the addition of 1% bovine serum albumin (BSA). The test article was added at 5 µM in the assay buffer. […] After 2 h, duplicate aliquots were taken from the donor and receiver chambers and assayed via LC/MS. The apparent permeability and recovery were calculated using standard methods.
The objective of this study was to determine the bi-directional Caco-2 permeability and efflux limited absorption poten tial of thr ee test compoun ds. […]
4 . […] Th e test compound dosing concentrations were 5 µM in th e a ssay bu f fer . […] After two hours, a l iquot s wer e t a ken fr om th e r ecei ver an d don or cha m ber s. E a ch det erm ina ti on wa s per for m ed in dupl i cat e. […] Analytical conditions are outlined in Attachment I. The apparent permeability, Papp, and per cen t r ecover y wer e calculated as follows: […]

Papp: 0.26 ×10⁻⁶ cm/s
SMILES: CC(C)NCC(O)COc1ccc(CC(N)=O)cc1 (stereo not shown) [Atenolol, reference compound]
